The values below come from PMC10042831.

The chains behind the UniProt entries cited, without tags or fusion partners. Where a name states a change or a piece, a line headed by the entry shows the natural chain unless it says otherwise.
UniProt Q5S007: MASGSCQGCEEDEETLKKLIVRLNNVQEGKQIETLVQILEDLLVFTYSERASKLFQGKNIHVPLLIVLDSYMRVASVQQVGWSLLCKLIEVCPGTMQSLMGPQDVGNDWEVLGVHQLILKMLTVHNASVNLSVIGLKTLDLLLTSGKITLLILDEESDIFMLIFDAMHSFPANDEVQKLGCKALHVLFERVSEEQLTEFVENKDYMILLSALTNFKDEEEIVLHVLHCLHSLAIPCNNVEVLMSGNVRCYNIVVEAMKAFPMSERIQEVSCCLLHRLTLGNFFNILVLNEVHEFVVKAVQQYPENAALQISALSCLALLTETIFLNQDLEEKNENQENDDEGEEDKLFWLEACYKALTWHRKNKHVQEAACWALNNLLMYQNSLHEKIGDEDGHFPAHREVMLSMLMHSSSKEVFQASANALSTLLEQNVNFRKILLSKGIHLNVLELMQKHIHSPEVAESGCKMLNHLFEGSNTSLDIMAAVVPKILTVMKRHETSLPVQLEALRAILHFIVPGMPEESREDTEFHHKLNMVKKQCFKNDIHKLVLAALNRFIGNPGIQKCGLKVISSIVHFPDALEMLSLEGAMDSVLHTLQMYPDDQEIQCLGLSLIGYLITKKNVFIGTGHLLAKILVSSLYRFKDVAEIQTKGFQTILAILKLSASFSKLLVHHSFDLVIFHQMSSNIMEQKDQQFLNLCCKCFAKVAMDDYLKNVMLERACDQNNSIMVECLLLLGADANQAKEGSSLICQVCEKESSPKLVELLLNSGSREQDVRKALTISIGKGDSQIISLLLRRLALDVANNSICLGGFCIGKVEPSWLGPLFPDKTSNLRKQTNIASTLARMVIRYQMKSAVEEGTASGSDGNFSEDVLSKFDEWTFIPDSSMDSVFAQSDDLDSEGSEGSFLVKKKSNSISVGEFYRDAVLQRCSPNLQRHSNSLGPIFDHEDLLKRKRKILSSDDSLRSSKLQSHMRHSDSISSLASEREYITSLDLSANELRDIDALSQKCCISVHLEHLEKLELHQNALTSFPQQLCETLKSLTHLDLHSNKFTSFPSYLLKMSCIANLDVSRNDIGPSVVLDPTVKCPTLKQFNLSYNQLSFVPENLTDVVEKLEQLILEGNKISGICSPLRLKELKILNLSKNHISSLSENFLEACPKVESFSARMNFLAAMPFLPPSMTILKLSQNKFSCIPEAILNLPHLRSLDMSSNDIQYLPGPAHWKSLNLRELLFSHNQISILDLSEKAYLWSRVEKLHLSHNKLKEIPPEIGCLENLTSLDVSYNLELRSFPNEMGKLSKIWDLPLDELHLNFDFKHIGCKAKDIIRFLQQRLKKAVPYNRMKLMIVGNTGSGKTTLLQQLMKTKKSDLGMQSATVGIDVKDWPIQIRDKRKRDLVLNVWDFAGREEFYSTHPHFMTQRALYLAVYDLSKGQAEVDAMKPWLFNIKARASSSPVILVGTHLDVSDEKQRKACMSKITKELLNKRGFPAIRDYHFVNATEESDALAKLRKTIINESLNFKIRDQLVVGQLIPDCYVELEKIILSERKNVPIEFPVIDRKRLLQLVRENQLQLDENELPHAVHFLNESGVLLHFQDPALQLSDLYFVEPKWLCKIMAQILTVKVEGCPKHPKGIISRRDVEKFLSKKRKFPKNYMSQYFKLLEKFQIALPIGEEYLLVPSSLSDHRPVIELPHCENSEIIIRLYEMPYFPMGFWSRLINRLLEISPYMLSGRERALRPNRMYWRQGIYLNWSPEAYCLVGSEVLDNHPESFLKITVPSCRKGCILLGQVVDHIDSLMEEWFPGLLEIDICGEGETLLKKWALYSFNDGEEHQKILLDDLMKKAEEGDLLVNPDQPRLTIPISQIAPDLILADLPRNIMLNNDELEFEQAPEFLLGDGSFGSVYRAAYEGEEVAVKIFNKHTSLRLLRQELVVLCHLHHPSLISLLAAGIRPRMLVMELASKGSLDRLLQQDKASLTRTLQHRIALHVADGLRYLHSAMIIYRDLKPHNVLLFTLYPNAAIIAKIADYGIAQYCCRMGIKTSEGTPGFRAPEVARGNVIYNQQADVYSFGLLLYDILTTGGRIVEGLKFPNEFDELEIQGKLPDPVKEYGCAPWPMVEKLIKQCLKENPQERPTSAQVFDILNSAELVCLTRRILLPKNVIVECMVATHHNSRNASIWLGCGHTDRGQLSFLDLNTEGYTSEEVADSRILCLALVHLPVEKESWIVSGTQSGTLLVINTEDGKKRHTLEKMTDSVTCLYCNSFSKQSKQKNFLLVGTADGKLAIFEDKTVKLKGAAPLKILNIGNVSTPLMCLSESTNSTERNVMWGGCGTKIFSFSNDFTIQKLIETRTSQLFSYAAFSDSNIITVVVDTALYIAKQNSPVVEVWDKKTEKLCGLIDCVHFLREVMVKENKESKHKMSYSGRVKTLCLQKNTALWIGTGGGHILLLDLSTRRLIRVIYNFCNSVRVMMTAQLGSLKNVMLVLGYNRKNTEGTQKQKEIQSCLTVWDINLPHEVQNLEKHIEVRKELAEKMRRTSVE
UniProt Q5S006: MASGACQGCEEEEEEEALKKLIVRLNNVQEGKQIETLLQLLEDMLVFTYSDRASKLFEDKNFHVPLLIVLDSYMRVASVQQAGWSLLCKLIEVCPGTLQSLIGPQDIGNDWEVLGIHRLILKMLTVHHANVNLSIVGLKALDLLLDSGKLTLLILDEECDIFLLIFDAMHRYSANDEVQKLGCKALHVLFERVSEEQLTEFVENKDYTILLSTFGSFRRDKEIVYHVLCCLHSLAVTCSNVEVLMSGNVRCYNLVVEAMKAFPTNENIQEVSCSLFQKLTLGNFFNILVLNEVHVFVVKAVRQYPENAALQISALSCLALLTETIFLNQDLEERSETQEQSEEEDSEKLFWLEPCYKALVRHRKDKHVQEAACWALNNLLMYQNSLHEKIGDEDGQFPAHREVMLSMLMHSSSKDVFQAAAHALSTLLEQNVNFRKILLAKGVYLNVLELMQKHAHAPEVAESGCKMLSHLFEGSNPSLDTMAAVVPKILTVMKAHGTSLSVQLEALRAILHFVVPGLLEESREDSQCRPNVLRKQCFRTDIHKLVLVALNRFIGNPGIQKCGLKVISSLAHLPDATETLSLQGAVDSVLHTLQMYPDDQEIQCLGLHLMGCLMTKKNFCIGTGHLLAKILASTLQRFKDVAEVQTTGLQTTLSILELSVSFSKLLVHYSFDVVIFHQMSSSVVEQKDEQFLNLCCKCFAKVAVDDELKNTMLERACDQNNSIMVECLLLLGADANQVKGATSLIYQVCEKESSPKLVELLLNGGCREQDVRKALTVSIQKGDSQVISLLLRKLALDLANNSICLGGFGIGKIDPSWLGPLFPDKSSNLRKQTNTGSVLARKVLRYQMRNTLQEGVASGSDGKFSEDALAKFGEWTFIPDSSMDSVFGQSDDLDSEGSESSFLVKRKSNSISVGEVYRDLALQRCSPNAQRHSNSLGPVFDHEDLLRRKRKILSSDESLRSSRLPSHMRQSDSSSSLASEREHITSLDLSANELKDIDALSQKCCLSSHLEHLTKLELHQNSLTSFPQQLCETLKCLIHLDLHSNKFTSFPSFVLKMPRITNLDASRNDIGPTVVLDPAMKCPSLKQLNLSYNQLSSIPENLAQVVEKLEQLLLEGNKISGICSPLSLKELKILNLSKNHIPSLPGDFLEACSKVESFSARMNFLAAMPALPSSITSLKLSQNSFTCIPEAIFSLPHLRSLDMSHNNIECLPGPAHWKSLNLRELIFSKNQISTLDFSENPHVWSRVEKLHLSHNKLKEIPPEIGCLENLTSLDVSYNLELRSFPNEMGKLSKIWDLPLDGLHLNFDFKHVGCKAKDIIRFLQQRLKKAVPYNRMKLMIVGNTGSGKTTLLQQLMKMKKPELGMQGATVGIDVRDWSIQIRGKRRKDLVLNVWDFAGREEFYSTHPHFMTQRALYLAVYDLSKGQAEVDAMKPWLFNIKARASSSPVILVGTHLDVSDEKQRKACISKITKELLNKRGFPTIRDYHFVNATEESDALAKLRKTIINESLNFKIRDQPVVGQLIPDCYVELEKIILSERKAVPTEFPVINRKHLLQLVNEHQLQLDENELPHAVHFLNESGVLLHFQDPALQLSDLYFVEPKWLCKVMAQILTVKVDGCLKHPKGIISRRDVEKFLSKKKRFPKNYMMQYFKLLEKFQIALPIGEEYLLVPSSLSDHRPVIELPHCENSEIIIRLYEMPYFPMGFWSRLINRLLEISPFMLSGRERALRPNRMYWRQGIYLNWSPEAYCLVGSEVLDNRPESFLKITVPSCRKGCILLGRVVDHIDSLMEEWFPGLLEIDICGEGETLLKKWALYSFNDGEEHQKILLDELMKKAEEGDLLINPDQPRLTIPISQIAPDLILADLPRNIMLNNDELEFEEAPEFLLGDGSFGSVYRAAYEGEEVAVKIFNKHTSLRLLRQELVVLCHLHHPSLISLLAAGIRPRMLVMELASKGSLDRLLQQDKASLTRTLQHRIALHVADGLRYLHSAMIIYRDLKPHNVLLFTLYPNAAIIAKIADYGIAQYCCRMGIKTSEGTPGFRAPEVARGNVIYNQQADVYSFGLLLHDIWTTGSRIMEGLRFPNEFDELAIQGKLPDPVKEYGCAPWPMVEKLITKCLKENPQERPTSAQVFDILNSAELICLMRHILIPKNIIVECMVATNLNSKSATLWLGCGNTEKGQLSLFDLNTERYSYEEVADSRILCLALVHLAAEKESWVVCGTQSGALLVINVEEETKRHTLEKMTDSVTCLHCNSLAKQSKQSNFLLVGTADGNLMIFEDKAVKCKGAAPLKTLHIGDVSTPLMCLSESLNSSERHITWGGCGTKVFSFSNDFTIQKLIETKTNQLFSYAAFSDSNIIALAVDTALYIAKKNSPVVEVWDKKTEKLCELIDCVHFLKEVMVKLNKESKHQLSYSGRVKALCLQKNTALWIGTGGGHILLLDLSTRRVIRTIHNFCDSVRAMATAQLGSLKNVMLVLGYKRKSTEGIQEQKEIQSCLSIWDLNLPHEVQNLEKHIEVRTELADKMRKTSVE

Test [1] concerns the target T1, Rit2, human, transiently expressed in HEK293T cells (human) (UniProt Q99578).
T1 sequence: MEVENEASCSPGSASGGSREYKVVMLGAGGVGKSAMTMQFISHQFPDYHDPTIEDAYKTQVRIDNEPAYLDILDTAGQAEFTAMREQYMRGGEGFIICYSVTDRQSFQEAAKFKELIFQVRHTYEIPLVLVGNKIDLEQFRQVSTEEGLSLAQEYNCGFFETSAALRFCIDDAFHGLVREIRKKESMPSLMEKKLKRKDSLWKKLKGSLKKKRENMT
As to the kind of experiment: proximity ligation; Duolink PLA for Rit2 and total LRRK2 in fixed HEK293T cells with transient, stoichiometrically comparable expression of Rit2 and LRRK2 (WT or G2019S).

Test [2] concerns the target T2, Rit2, endogenous, mouse brain (mouse (endogenous in mouse brain)) (UniProt P70425).
T2 sequence: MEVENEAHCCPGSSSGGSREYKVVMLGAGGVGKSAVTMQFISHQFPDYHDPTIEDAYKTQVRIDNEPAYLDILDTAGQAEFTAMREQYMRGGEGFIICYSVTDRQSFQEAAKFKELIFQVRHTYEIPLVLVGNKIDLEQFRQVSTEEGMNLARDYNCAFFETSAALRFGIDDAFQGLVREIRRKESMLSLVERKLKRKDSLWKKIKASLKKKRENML
The experiment in a line: co-IP; mouse brain lysate (midbrain and striatum pooled); anti-Rit2 antibody (Origene TA501701) or same species IgG as control, overnight at 4 °C, protein A/G magnetic beads; 50 mM Tris-HCl pH 7.6, 150 mM NaCl, 1% IGEPAL CA-630, 0.1% SDS; blot for LRRK2.

The target of test [3] is T3, Rit2 (small GTPase Rit2), human, overexpressed in SH-SY5Y cell lines (human) (UniProt Q99578).
T3 sequence: T1 sequence
The experiment in a line: proximity ligation; Duolink PLA for Rit2 and total LRRK2 in fixed SH-SY5Y cell lines stably overexpressing WT- or G2019S-LRRK2.

Results are given in words; binding and its absence hold for the method and conditions named. Binding seen in cells or lysates may run through a third protein. Some binding calls cover weakened binding; strength is not graded here.

In the case of “2xMyc-LRRK2 G2019S, transiently expressed in HEK293T cells (from UniProt Q5S007 1-2527)”, the binding result in test [1] is “binds”.

For the substance “2xMyc-LRRK2 WT, transiently expressed in HEK293T cells (from UniProt Q5S007 1-2527)”, the binding entry in test [1] is recorded as “binds”.

With “LRRK2, endogenous, mouse brain (from UniProt Q5S006 1-2527)”, the binding result in test [2] is “binds”.

Regarding “WT-LRRK2 (leucine-rich repeat kinase 2), stably overexpressed in SH-SY5Y cells (from UniProt Q5S007 1-2527)”, in test [3], the binding result is reported as “binds”.
